The experiment has as its target T1, FOXQ1 in TNBC cells transfected with Myc-tagged RAPH1-i3 (human) (UniProt Q9C009).
T1 sequence: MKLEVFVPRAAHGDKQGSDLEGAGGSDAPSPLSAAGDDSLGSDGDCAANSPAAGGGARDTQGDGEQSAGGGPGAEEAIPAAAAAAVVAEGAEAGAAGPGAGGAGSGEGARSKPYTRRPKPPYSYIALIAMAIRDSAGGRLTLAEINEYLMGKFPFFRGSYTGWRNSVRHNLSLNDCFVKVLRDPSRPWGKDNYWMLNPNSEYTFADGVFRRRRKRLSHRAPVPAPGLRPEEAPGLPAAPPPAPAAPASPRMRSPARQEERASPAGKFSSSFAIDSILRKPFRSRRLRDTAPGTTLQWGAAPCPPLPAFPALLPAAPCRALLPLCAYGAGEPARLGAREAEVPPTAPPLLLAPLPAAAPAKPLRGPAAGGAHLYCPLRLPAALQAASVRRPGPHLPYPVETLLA
Kind of experiment: co-IP; TNBC cells transfected with Myc-tagged RAPH1-i3; immunoprecipitation with an anti-FOXQ1 antibody.

Protein sequences, listed by entry. Tags and fused reporters are not part of them. Lines headed by an entry give the natural chain unless they say otherwise; changes in a name come on top. Chains listed by the source or under a name are the forms on record and can include a tag or linker.
Myc-tagged RAPH1-i3 (RAPH1 isoform 3, encoded by RAPH1-v3) (Q70E73-9, form named): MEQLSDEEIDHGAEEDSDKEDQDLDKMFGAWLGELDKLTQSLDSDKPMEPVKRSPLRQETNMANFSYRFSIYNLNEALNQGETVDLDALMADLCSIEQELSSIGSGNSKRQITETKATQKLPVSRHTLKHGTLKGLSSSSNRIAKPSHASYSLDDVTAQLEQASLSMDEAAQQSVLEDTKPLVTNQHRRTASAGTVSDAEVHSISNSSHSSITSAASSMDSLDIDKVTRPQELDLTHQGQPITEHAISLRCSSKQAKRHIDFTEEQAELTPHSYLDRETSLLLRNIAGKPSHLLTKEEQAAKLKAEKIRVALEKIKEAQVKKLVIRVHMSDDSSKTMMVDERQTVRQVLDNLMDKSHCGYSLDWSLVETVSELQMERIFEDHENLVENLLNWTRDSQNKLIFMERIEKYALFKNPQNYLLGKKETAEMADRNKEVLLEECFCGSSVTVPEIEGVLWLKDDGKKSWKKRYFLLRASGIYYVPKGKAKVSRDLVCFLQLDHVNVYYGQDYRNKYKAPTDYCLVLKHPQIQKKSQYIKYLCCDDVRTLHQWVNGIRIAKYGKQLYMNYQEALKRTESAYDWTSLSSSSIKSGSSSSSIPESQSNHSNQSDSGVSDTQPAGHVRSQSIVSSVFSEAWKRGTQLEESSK

These are yes or no findings as the source states them, for the method shown. Binding seen in cells or lysates may run through a third protein. Some entries that bind do so weakly or less than the wild type. Where a sequence is shown, tags or fusion partners need not be part of it.

For the substance “Myc-tagged RAPH1-i3 (RAPH1 isoform 3, encoded by RAPH1-v3) (from UniProt Q70E73-9 1-644)”, the binding result is “binds”.

Source of the values: article PMC10703867.
